Source: publication PMC7948738
These are yes or no findings as the source states them, for the method shown. Binding seen in cells or lysates may run through a third protein. Binding calls can cover weak binding; strength is not graded here.

Target: PI3K (endogenous in rat retinal ganglion cells) (rat (endogenous in primary RGCs))
Experiment: proximity ligation; Duolink PLA with PI3K and ZC3H14 primary antibodies on fixed primary rat RGCs; untreated, PDGFbb or PDGFab treated (signal increased by PDGFab)

binding: binds
B1: ZC3H14 (endogenous in rat retinal ganglion cells) (protein, UniProt Q7TMD5 1-736)
chain: MEIGTEISRKIRSAIKGKLQELGAYVDEELPDYIMVMVANKKSQDQMTEDLSLFLGNNTIRFTVWLHGVLDKLRSVTTEPSSLKSPDTSIFDSNVPSNKSSFSRGDERRHEAAIPPLAVSSSRPEKRDSRVSTSSQEHKSTNVRHSYDDGASTRLMSTVKPLREPAPSEDVIDIKPEPDDLIDEDLNFVQENSLSQKKPTVTLTYGSSRPSIEIYRPPASRNADTGTHLNRPQLQQQQSSTHTAKQLDGQSSQVYEAGRLCEPEVLGSVEDTYSPFFRNNLDKMNIEEENFRKRKLPVVSSVVKVKRFSHDGEEEEEDEDYGTRVGSLSSSVSVPAKPERRPSLPPSKQANKNLILKAISEAQESVTKTTNYPAVPQKQTLPVAPRTRTSQEEVLAEMVQGQNRAPRISPPVKEEEAKGDNAEKIEGTQQRQLLSRLQIDPVTVDTMELSQDYYDMESMVHADTRSFILKKPKLSEEIVVTPNQDSGMKTADALRVLSGHLMQTRDLVQPDKPASPKFIVTLDGVPSPPGYMSDQEEEMCFEGMKPVNQTSASNKGLRGLLHPQQLHLLSRQLEDPDGSFSNAEMTDLSVAQKPEKLLERCKYWPACKNGDECVYHHPISPCKAFPNCKFAEKCLFVHPNCKYDAKCTKADCPFTHMSRRGPVLTPKPAVSSPAPSSNGQFCRYFPACKKMECPFYHPKHCRFNTQCTRPDCTFYHPTITVPPRHALKWIRPQTSE
